From patent US20140050732A1
These are yes or no findings as the source states them, for the method shown. Some results given as binding are weak or reduced against the parent protein; the word gives no strength.

Columns and labels:
[1] = target: T1, bovine CD40 receptor (Bos taurus (bovine)) (UniProt Q28203); assay: flow cytometry, surface staining of bovine CD40-transfected COS-7 cells
T1 sequence: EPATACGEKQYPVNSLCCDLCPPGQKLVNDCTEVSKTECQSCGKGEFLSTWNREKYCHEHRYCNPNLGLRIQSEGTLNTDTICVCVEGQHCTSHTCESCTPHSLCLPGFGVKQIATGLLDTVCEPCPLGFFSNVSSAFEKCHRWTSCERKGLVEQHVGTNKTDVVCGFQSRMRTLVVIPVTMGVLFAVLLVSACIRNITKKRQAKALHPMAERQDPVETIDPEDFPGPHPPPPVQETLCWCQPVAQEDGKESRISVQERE

[2] = target: T1, bovine CD40 receptor (Bos taurus (bovine)); assay: western blot of bovine PBMC lysates with purified monoclonal antibodies
[3] = target: T1, bovine CD40 receptor (Bos taurus (bovine)); assay: flow cytometry on bovine CD40-transfected COS-7 cells

Measured: binding

B1: E1 monoclonal anti-bovine CD40 antibody (antibody, V domains shown)
VH: EVKLVESGGVLVKPGGSLKLSCAASGFTFSSYAMSWVRQTPEKRLEWVASIGSGGGTYYPDSVKGRFTISRNNARNILYLQMSSLRSEDTAMYYCARAYYRNHRGSVMDYWGQGTSVTVSS
VL: DIVLTQSPASLAVSLGQRATISCKASQTVDYDGDSYMNWYQQKPGQPPKVLIYSASNLESGIPARFSGSGSGTDFTLNIHPVEEEDAATYYCQQSTEDPPTFGGGTKLEIK
binds: all assays above
